From PMC3106354 (Current Chemical Genomics, 2011)

System: LPS induced TNF-α production in THP-1 cells
Assay: ELISA measurement of TNF-α: inhibition of LPS induced TNF-α production
Type: cell-based
Details: Homo sapiens, THP-1, 17 h, read-out: IC50 in ELISA assay (text, Fig. 5)

IC50: 10.6 nM
SMILES: O=[N+]([O-])c1ccc(-c2nc(-c3ccncc3)c(-c3ccc(F)cc3)[nH]2)cc1 [PD 169316]
